Source: paper PMC13395416 (PLOS Pathogens, 2026)
Results are given in words; binding and its absence hold for the method and conditions named.

Molecular target: SteC_(210-429;K256H), inactive variant (Salmonella Typhimurium strain 14028s) (UniProt D0ZIB5)
Experiment: SEC-MALS; both purified

Question: With “SteC_(210-429;K256H), inactive variant (from UniProt D0ZIB5 210-429) (domain or fragment)” as the substance, how does the binding read?
Answer: Its binding is “no binding (tested: up to 8 mg/ml)”.
